Reference: publication PMC11513148
These are yes or no findings as the source states them, for the method shown. For part of these data: In cells and extracts the contact can be indirect. Some binding calls cover weakened binding; strength is not graded here. Where a sequence is shown, tags or fusion partners need not be part of it. Blank lines part the entries; values can stand above or below the binder they belong to.

Columns and labels:
[1] = target: T1, GFP-Hmx1^264 (GFP-ALFA fused to Hmx1 residues 264-317) (S. cerevisiae) (UniProt P32339); experiment: co-IP; non-denaturing immunoprecipitation of GFP-ALFA model substrates (anti-ALFA ST magnetic beads) from tul1Δ cells, lysate solubilised with glyco-diosgenin; Western blot
T1 sequence: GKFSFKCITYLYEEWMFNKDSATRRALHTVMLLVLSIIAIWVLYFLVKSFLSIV

[2] = target: T2, GFP-Hmx1^284 (GFP-ALFA fused to Hmx1 residues 284-317) (S. cerevisiae) (UniProt P32339); experiment: co-IP; non-denaturing immunoprecipitation of GFP-Hmx1^284 (anti-ALFA ST magnetic beads) from cells with all Dsc subunits, lysate solubilised with glyco-diosgenin; Western blot
T2 sequence: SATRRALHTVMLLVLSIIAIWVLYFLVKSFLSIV

[3] = target: T3, Ubx3-FLAG (S. cerevisiae) (UniProt Q12229); experiment: SEC; Ubx3-FLAG immunoprecipitated from WT or dsc3Δ cells, eluted with Strep-6xFLAG-peptide, run on Superose 6 Increase 3.2/300 in PBS with 0.05% GDN; fractions analysed by Western blot
T3 sequence: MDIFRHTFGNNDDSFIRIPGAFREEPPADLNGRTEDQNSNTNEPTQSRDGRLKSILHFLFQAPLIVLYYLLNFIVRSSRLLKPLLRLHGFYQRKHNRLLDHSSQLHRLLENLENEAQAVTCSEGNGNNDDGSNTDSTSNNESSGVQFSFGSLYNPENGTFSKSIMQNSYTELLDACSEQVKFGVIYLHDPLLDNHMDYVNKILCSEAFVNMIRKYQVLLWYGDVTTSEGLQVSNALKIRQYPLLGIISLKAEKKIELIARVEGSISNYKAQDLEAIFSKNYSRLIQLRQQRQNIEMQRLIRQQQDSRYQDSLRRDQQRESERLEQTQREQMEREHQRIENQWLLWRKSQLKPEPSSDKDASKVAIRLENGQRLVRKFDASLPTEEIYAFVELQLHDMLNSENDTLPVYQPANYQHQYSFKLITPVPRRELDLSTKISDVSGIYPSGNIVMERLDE

[4] = target: T3, Ubx3-FLAG (S. cerevisiae); experiment: co-IP; non-denaturing immunoprecipitation of Ubx3-FLAG on anti-FLAG M2 beads from yeast lysate solubilised with glyco-diosgenin, 4 °C; Western blot; WT cells, also tul1Δ and dsc3Δ cells
[5] = target: T2, GFP-Hmx1^284 (GFP-ALFA fused to Hmx1 residues 284-317) (S. cerevisiae); experiment: co-IP; non-denaturing immunoprecipitation of GFP-Hmx1^284 from dsc3Δ cells in which Dsc2 was over-expressed from a galactose inducible promotor (16 h in 2% galactose); control: uninduced cells
[6] = target: T4, FLAG-Hmx1 (heme oxygenase 1 with an N-terminal 3xFLAG tag) (S. cerevisiae) (UniProt P32339); experiment: co-IP; non-denaturing immunoprecipitation of the substrate (FLAG-Hmx1, FLAG-Orm2^KR on anti-FLAG M2 beads; Yif1-HA on anti-HA beads) from yeast lysate solubilised with glyco-diosgenin, 4 °C, washes up to 300 mM NaCl; Western blot; WT cells, also ubx3Δ, dsc3Δ and tul1Δ cells
T4 sequence: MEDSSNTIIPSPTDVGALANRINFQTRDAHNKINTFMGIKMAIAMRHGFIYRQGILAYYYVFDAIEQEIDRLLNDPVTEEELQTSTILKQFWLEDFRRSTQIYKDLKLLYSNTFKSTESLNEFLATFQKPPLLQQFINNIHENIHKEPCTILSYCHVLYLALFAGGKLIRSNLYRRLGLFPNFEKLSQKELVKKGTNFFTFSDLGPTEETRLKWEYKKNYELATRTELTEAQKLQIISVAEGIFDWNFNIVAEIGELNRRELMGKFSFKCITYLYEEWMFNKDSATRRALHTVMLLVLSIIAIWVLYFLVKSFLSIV

[7] = target: T5, Yif1-HA (endogenous Yif1 tagged with 3xHA) (S. cerevisiae) (UniProt P53845); experiment: as above
T5 sequence: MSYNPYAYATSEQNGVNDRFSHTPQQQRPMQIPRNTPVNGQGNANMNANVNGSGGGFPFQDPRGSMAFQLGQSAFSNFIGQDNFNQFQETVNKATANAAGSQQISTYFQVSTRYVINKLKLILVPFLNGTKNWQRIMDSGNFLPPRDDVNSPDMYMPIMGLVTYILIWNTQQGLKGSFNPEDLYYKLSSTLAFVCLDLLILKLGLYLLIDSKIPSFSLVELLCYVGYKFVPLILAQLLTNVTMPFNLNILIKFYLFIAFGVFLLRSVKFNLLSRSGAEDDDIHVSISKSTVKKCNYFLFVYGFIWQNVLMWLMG

- binding [1]: binds
- binding [2]: binds
- binding [3]: binds
- binding [4]: binds
- binding [5]: binds
- binding [6]: binds
- binding [7]: binds
B1: Dsc2 (rhomboid pseudo-protease subunit of the Dsc complex) (protein, UniProt Q08232 1-322)
chain: MSMEPPVGLTAMPVTKLAMITTLVVPLVASIASYKHIFLLQYDPFLQTYHQYYRLLIFQFCAINESDTVILALIWYLFRHLERLLGSHKYLTLIVLSWAYTTLGIWGLNLIWNAFIGQYKWLQWNNFSTGSLPIVLSLVHFYKEYTPQIYEWNIRLLGPRGGASSHNDNKREDKSAVEWKINDQFLLNGLILLLILNQGFAGILCGFISWMCGIFIDKGLLPGLDHWRIPFVSYFISQGPPTRANVAIAANAATNTAAARATVEAATAATGNGNTGNSGPTSLPLRGSSTTPTNTSSAGDDEPGADEPARPLGVQFLDTFRR

- binding [3]: binds
- binding [4]: binds
B2: Dsc3 (UBL domain subunit of the Dsc complex) (protein, UniProt Q12015 1-292)
chain: MSAEPLLPTHNGSQGGEVRSPDQKFIVIRFSDVSVRDLQLNISNVPFSNINTHWLRRMCRELRPQQTQKRRLKFIRNGSILNTHSKIAEELTHYFDTANNSNVATGTSVAPEQNNYYIHCIIGTEELTQAELANEDLKDDATPSNDSMTTQAIGFDRLRSVGFTEQEIELLRQQFRATYGDLEEEEERLAQNGNRDDEGHDIRQLEEQWMESGSGTAQGNGAGGGNEDRFNSVPIANIKHNKDLLLGICVGFFFGVFGILLMKFDGLFNRRQKMAIFAGVIVNVMFCLVRGF
